Some of the results follow. Single values are uncertain, as repeats are few or missing.
Biological target: T1, NSUN6 (UniProt Q8TEA1)
T1 sequence: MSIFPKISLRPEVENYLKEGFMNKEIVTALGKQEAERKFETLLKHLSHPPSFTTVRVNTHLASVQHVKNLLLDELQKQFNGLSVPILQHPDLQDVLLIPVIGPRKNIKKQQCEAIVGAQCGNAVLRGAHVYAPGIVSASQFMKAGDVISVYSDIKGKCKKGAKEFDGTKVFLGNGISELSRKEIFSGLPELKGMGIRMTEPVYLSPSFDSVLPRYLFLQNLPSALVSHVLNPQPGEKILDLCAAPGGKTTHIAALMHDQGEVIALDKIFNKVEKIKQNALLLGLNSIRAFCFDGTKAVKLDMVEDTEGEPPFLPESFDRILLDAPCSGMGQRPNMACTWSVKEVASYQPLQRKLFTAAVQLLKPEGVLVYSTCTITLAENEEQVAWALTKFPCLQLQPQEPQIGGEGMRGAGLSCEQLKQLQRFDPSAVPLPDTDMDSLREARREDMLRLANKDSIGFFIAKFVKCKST
Test: m5C methylation level at the target C (C/(C+U) bisulfite reads) (fraction); higher = more methylation by NSUN6; extreme values may be limits of the assay
Conditions: HEK293T (wild-type)
Experimental: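 High-throughput mutagenesis reporter. About 140 bp oligo-pool variants of four natural Type II m5C substrates (substrate #1 chr15:91425541; #2 RAB15 3'UTR chr14:65413377; #3 SULT2A1 5'UTR chr19:48389569; #4 NAAA CDS chr4:76857361) were cloned as 3'UTR elements of psiCHECK-2 luciferase and transfected into wild-type HEK293T cells. Total RNA was taken 48 h later and m5C level was measured by targeted bisulfite sequencing as C/(C+U) reads at the m5C site (one library).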

[1] = parent substrate: substrate #1 (main figure)

Sequence	m5C methylation level at the target C [1]	m5C methylation level at the target C (parent substrate: substrate #2)	m5C methylation level at the target C (parent substrate: substrate #3)	m5C methylation level at the target C (parent substrate: substrate #4)
GCACCA	0.000449	0.000812	0.000538	0.000726
UCAGUA	0.00332	0.0025	0	0
UCUAAU	0	0	0.00137	0.00319
ACCCGG	0.0108	0.000608	0.00286	0.000984
CCUGCA	0	0	0	0.0101
CCCCAG	0	0.0017	0	0.00852
CCGCAG	0.0029	0.00202	0.00129	0.00072
ACACCA	0	0.00135	0	0.00131
UCGUAA	0.000563	0	0.00315	0
ACCUAC	0.000527	0	0	0.00131
UCCUUC	0.00296	0	0	0.00725
CCUGGA	0	0	0.00481	0.00575
CCCCGU	0	0	0.00139	0.00106
ACUGCU	0	0.00478	0.00129	0.0025
ACGCCA	0	0.00131	0	0
CCACUG	0	0	0.000702	0.00582
ACCGCG	0.0013	0.000564	0.00237	0
ACAGGU	0	0	0	0
UCCGGG	0	0	0	0.000894
UCCGGC	0	0	0.00088	0.002
ACACUC	0.0024	0.00109	0	0.000728
GCUAUC	0.00189	0.000602	0.00112	0.00193
CCUAGG	0	0	0	0.00173
GCUAUU	0.00216	0.00471	0.000548	0.00645
GCAGAC	0	0.00796	0	0.000834

Sequence	m5C methylation level at the target C [1]	m5C methylation level at the target C (parent substrate: substrate #2)	m5C methylation level at the target C (parent substrate: substrate #3)	m5C methylation level at the target C (parent substrate: substrate #4)
GCGGAG	0.00224	0.00298	0.00119	0
ACUUUG	0.00117	0.00166	0.00538	0
CCUUCG	0.00154	0.000846	0.00183	0.000998
GCUGCG	0.00245	0.00727	0.00218	0.00102
CCCUCA	0.00111	0	0.00122	0.0108
GCGUGA	0.0029	0.000607	0.00396	0.000851
CCAUAG	0	0	0.00527	0.000654
UCCUUA	0.00167	0	0.000657	0.027
UCCUAC	0.00119	0	0	0.00219
GCGCGG	0	0.000743	0.00146	0
ACGUAG	0.00403	0.0042	0.00102	0
UCUUGU	0	0	0.000486	0.00221
CCGAUU	0.000609	0.0141	0.000831	0
ACAGCG	0	0.000903	0.00597	0
CCAAGU	0.00109	0	0.00089	0
ACCCCC	0.00289	0	0	0
GCGUCC	0	0.00178	0.000993	0
GCACUC	0.00197	0	0	0
ACGUUU	0	0.00246	0.00554	0.00633
ACAGCC	0.000663	0.00141	0	0.00741
ACGCCU	0.00124	0.00278	0	0
UCUGAG	0.000428	0.00196	0	0.00204
UCGAUA	0	0.000598	0.00442	0.0061
ACUGGG	0	0.00109	0	0
ACGCAG	0.000651	0	0	0.00077

Reformatted comma-delimited: entries from further up.
Sequence,m5C methylation level at the target C [1],m5C methylation level at the target C (parent substrate: substrate #2),m5C methylation level at the target C (parent substrate: substrate #3),m5C methylation level at the target C (parent substrate: substrate #4)
GCUAUC,0.00189,0.000602,0.00112,0.00193
CCUAGG,0,0,0,0.00173
GCUAUU,0.00216,0.00471,0.000548,0.00645
GCAGAC,0,0.00796,0,0.000834
GCGGAG,0.00224,0.00298,0.00119,0
ACUUUG,0.00117,0.00166,0.00538,0
CCUUCG,0.00154,0.000846,0.00183,0.000998
GCUGCG,0.00245,0.00727,0.00218,0.00102
CCCUCA,0.00111,0,0.00122,0.0108
GCGUGA,0.0029,0.000607,0.00396,0.000851
CCAUAG,0,0,0.00527,0.000654
UCCUUA,0.00167,0,0.000657,0.027
UCCUAC,0.00119,0,0,0.00219
GCGCGG,0,0.000743,0.00146,0
ACGUAG,0.00403,0.0042,0.00102,0
UCUUGU,0,0,0.000486,0.00221
CCGAUU,0.000609,0.0141,0.000831,0

Continued.

Sequence	m5C methylation level at the target C [1]	m5C methylation level at the target C (parent substrate: substrate #2)	m5C methylation level at the target C (parent substrate: substrate #3)	m5C methylation level at the target C (parent substrate: substrate #4)
ACAUGG	0.00256	0	0.00424	0
CCGCUC	0	0	0	0
ACUUCC	0.000889	0	0.00137	0.000977
GCUGAG	0.000634	0.00972	0.000841	0.00685
UCAUUA	0	0	0.000554	0
GCGAGC	0	0.000827	0.00116	0.0027
ACGGGA	0.0032	0.00119	0.000902	0
UCUACA	0.000792	0	0.00337	0
GCGCAG	0.00245	0.00732	0.00192	0.00115
UCUGUG	0.00332	0.00185	0.000888	0.00111
CCUCUG	0.00164	0	0.000655	0
GCACUA	0.000804	0.00149	0.0015	0
GCUUUU	0.00338	0.00284	0.00207	0
GCGUUC	0.00325	0.00158	0.00312	0.00197
ACCAAA	0	0.000845	0.00448	0
CCUAGC	0.000834	0	0.0041	0.000789
GCUAGU	0.00152	0.00677	0.00581	0.00072
ACCGGC	0.00101	0.000824	0.00105	0
CCUUAA	0.00102	0.00127	0	0
ACGACC	0.00871	0	0.00546	0
UCCGCG	0.00474	0.000994	0.00127	0.00764
UCUACC	0.00127	0.00355	0	0.000533
GCAUCC	0.00155	0.00885	0.000699	0.00749

Reference: the supplement of paper PMC8288183
